Experimental data: publication doi:10.1101/2025.09.10.675342
Results are given in words; binding and its absence hold for the method and conditions named. In cells and extracts the contact can be indirect. Here binding means that the protein was enriched with, or labelled near, the bait; the list need not be complete.

Sequences of proteins named here, by UniProt entry; tags and fusion partners are left off. Residues count along the entry.
UniProt P11835, residues 24-771: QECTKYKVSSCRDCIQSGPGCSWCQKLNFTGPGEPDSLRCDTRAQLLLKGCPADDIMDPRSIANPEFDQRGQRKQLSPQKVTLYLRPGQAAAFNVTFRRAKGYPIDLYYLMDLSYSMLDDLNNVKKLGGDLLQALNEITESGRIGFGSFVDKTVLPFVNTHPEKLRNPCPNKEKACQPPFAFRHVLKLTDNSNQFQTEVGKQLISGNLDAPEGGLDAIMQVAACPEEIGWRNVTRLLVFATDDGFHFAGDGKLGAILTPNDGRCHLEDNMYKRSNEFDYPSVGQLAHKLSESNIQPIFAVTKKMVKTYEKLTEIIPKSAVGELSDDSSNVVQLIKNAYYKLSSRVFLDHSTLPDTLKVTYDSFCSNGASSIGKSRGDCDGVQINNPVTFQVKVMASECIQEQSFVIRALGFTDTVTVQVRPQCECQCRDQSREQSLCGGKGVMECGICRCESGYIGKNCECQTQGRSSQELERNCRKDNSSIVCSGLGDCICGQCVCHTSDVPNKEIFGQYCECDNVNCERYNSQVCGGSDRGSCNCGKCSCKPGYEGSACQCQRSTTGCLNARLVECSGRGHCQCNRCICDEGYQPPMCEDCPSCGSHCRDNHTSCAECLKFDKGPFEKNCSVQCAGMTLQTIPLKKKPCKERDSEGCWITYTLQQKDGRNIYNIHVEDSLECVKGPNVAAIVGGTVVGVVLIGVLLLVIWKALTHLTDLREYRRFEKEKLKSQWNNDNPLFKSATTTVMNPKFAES

T1: SIRPα (endogenous, mouse BMDMs) (mouse (endogenous in BMDMs)) (UniProt P97797)
T1 sequence: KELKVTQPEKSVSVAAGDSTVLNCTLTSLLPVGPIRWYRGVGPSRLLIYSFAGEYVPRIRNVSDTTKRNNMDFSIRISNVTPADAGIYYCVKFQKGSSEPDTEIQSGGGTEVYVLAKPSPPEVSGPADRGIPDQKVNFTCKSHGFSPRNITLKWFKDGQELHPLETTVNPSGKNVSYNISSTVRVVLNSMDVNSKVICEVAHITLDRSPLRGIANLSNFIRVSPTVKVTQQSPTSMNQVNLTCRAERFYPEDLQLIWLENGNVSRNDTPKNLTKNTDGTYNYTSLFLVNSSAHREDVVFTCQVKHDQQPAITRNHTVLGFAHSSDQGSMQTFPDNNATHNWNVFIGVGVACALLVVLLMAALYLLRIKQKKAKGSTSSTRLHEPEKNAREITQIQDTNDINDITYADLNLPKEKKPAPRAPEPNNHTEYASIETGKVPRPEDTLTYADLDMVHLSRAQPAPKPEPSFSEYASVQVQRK

B1: CD45 (endogenous, mouse BMDMs) (protein, UniProt P06800 26-1293)
chain: QTPTPSDELSTTENALLLPQSDPLPARTTESTPPSISERGNGSSETTYHPGVLSTLLPHLSPQPDSQTPSAGGADTQTFSSQADNPTLTPAPGGGTDPPGVPGERTVPGTIPADTAFPVDTPSLARNSSAASPTHTSNVSTTDISSGASLTTLTPSTLGLASTDPPSTTIATTTKQTCAAMFGNITVNYTYESSNQTFKADLKDVQNAKCGNEDCENVLNNLEECSQIKNISVSNDSCAPATTIDLYVPPGTDKFSLHDCTPKEKANTSICLEWKTKNLDFRKCNSDNISYVLHCEPENNTKCIRRNTFIPERCQLDNLRAQTNYTCVAEILYRGVKLVKNVINVQTDLGIPETPKPSCGDPAARKTLVSWPEPVSKPESASKPHGYVLCYKNNSEKCKSLPNNVTSFEVESLKPYKYYEVSLLAYVNGKIQRNGTAEKCNFHTKADRPDKVNGMKTSRPTDNSINVTCGPPYETNGPKTFYILVVRSGGSFVTKYNKTNCQFYVDNLYYSTDYEFLVSFHNGVYEGDSVIRNESTNFNAKALIIFLVFLIIVTSIALLVVLYKIYDLRKKRSSNLDEQQELVERDDEKQLMDVEPIHSDILLETYKRKIADEGRLFLAEFQSIPRVFSKFPIKDARKPHNQNKNRYVDILPYDYNRVELSEINGDAGSTYINASYIDGFKEPRKYIAAQGPRDETVDDFWRMIWEQKATVIVMVTRCEEGNRNKCAEYWPSMEEGTRAFKDIVVTINDHKRCPDYIIQKLNVAHKKEKATGREVTHIQFTSWPDHGVPEDPHLLLKLRRRVNAFSNFFSGPIVVHCSAGVGRTGTYIGIDAMLEGLEAEGKVDVYGYVVKLRRQRCLMVQVEAQYILIHQALVEYNQFGETEVNLSELHSCLHNMKKRDPPSDPSPLEAEYQRLPSYRSWRTQHIGNQEENKKKNRNSNVVPYDFNRVPLKHELEMSKESEPESDESSDDDSDSEETSKYINASFVMSYWKPEMMIAAQGPLKETIGDFWQMIFQRKVKVIVMLTELVNGDQEVCAQYWGEGKQTYGDMEVEMKDTNRASAYTLRTFELRHSKRKEPRTVYQYQCTTWKGEELPAEPKDLVSMIQDLKQKLPKASPEGMKYHKHASILVHCRDGSQQTGLFCALFNLLESAETEDVVDVFQVVKSLRKARPGVVCSYEQYQFLYDIIASIYPAQNGQVKKTNSQDKIEFHNEVDGGKQDANCVRPDGPLNKAQEDSRGVGTPEPTNSAEEPEHAANGSASPAPTQSS

Target: T1, SIRPα (endogenous, mouse BMDMs) (mouse (endogenous in BMDMs))
Experiment: affinity purification with mass spectrometry

Molecule	binding
CD18 (β2 integrin) (endogenous, mouse BMDMs) (from UniProt P11835 24-771) (receptor)	binds
B1	binds
